Molecules are shown by their SMILES.

For this experiment, the system named is Human airway smooth muscle (HASM) cells. It is filed as cell-based.

For the compound `COc1ccc(CC(C)NCC(O)c2ccc(O)c(NC=O)c2)cc1` (stereo not shown) [Formoterol], the “effect on carbachol-induced increase in intracellular Ca++” value is given as “antagonized the carbachol-induced increase in intracellular Ca^++”.

These data come from patent US11407812B2, “Targeted expression of chloride channels and methods of use thereof” (GOLEINI INC., priority 2015, dated 2022).
